This is an account of results in patent publication US20100196469A1, “Pharmaceutical Formulation containing an HMG-COA Reductase Inhibitor and method for the preparation thereof” (PHARMATHEN S.A., priority 2007, published 2010).

Structures can show the parent of a compound that is named as a salt.

Data set [1] can be described thus: Dissolution test, Paddle Apparatus 75 rpm, 37° C., 1000 ml H2O. The format is physicochemical. The note with it: paddle 75 rpm. How it is done: One of the most critical pharmacotechnical tests, is the Dissolution test as it is strongly correlated with the bioavailability of the product. For the dissolution method a Paddle Apparatus was used 75 rpm, 37° C., time 30 min, while as a dissolution medium 1000 ml of H2O was used.

The nature of data set [2]: Carr's Index (flow properties). The format is physicochemical. The note with it: pure pharmaceutical substance. The source says:
However, when Attapulgite was incorporated according to the present invention, a decrease of 19% of the Carr Index was observed, which indicates an improvement of the flow properties of Atorvastatin and therefore the use of a direct compression for the final formulation.

As for `CC(C)c1c(C(=O)Nc2ccccc2)c(-c2ccccc2)c(-c2ccc(F)cc2)n1CC[C@@H](O)C[C@@H](O)CC(=O)O` (relative stereo) [Atorvastatin, [R—(R*,R*)]-2-(4-fluorophenyl)-b,d-dihydroxy-5-(1-methylethyl)-3-phenyl-4[(phenylamino)carbonyl]-1H -pyrrole-1-heptanoic acid, calcium salt (2:1) trihydrate], the Dissolution profile was 15.37 in data set [1] (5 min), 50.80 in data set [1] (15 min) and 58.48 in data set [1] (30 min). Also, the “mean Carr's Index” value in data set [2] was determined as 22.3%.
